Source: paper PMC10709637, “Phospholipids are imported into mitochondria by VDAC, a dimeric beta barrel scramblase” (Nature Communications, 2023)
No constants are given. Whether binding was seen depends on the method and setting. Some binding calls cover weakened binding; strength is not graded here. Sequences can lack the tags named with a protein. Blank lines part the entries; values can stand above or below the binder they belong to.

Key:
[1] = target: T1, C-terminal Twin-Strep-tagged yeast VDAC (Por1-TS) (S. cerevisiae), P04840; assay: co-purification (Strep-Tactin XT affinity chromatography, then SEC); Por1-TS over-expressed in yeast, membranes solubilised in 1% LDAO, bound to Strep-Tactin XT, washed in 0.1% LDAO, eluted with 50 mM biotin, SEC in 0.05% LDAO; details: remark: other sources report otherwise
T1 chain: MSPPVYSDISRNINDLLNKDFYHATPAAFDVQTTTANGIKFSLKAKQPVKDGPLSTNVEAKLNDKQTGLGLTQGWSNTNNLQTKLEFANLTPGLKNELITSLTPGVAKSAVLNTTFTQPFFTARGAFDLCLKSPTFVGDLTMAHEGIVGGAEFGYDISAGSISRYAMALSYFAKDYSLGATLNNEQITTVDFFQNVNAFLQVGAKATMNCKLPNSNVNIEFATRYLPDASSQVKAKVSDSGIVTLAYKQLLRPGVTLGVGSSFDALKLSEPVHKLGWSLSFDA

[2] = target: T2, human VDAC2 (Voltage Dependent Anion Channel 2), N-terminal hexahistidine tagged (human), P45880; assay: cross-linking; EGS cross-linking after reconstitution into LUVs (POPC/POPG) in 10 mM MOPS/KOH pH 7.0, 100 mM KCl; 16x mole excess of EGS, 20 °C, 40 min; SDS-PAGE immunoblot (anti-His for human VDAC, anti-VDAC1/Porin for yeast porin); both purified; details: remark: other sources report otherwise
T2 chain: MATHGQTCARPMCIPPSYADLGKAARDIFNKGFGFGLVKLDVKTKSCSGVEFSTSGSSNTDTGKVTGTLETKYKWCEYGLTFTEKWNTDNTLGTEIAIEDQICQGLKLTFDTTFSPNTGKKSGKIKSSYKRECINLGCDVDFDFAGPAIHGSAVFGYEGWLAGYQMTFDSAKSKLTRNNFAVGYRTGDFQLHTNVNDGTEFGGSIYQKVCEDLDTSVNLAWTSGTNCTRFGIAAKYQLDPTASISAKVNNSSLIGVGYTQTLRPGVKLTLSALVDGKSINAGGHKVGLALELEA

binding [1]: binds
B1: endogenous Por1 (yeast VDAC), P04840 1-283 (protein)
chain: T1 chain

binding [2]: binds
B2: human VDAC2 (Voltage Dependent Anion Channel 2), N-terminal hexahistidine tagged, P45880 1-294 (natural protein)
chain: T2 chain
